Measurements: the supplement of paper PMC12067093, “Discovery and optimisation of a covalent ligand for TRIM25 and its application to targeted protein ubiquitination” (Chemical Science, 2025)
Some of the results follow.

By UniProt entry, the sequences of proteins in these tests, tags left out. Where a name states a change or a piece, a line headed by the entry shows the natural chain unless it says otherwise.
UniProt P14543: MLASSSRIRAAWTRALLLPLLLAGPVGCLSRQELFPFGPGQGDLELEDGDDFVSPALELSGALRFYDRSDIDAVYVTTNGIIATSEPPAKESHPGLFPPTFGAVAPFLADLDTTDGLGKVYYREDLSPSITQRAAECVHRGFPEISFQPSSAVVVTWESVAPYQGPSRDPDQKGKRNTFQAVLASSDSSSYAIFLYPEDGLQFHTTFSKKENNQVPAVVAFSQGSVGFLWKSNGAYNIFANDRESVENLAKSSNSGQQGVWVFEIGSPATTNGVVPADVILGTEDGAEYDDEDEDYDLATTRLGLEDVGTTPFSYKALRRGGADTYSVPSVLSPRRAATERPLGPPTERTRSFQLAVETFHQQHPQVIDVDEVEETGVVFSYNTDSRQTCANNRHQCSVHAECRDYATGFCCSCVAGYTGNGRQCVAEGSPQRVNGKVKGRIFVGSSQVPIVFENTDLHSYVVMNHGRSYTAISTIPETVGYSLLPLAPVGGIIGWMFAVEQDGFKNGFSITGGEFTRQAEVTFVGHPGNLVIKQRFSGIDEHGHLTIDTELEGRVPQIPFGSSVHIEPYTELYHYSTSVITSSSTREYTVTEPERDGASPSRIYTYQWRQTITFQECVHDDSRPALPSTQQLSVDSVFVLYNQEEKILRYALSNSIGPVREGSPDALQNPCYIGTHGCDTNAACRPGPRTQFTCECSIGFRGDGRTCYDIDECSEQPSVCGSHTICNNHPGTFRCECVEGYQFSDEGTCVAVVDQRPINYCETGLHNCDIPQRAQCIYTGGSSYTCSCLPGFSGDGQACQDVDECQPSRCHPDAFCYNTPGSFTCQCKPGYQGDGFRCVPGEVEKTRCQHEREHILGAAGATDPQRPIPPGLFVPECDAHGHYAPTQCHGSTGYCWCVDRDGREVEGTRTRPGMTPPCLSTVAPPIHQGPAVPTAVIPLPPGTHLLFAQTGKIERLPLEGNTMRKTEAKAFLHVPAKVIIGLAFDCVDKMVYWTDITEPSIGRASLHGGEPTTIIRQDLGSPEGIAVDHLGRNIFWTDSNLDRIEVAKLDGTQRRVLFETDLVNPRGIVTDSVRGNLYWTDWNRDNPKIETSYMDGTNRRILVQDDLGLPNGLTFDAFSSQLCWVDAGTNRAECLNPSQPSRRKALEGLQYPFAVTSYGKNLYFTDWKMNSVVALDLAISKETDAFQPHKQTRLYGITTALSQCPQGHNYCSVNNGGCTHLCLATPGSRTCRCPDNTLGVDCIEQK
UniProt O75380, whole entry, looked up: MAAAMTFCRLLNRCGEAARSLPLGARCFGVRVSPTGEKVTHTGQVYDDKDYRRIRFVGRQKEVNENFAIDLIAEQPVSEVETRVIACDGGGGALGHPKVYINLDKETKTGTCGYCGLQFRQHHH
UniProt P51970, whole entry, looked up: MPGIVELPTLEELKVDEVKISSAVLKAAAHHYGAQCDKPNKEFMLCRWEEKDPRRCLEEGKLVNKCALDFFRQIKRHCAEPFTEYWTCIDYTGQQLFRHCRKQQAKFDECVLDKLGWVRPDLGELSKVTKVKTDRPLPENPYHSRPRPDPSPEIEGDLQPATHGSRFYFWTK
UniProt P49821, whole entry, looked up: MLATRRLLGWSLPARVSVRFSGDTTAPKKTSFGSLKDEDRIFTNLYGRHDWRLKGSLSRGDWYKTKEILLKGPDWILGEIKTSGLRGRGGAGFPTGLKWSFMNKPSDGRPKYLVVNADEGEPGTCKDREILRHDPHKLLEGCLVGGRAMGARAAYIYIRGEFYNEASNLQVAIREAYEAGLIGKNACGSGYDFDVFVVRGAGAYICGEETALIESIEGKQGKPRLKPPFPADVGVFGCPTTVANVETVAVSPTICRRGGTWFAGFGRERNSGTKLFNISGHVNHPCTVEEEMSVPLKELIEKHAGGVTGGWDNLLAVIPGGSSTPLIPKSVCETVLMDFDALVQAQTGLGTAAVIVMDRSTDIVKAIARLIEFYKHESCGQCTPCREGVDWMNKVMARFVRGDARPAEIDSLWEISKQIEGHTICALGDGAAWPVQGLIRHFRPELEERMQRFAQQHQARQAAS
UniProt P55160: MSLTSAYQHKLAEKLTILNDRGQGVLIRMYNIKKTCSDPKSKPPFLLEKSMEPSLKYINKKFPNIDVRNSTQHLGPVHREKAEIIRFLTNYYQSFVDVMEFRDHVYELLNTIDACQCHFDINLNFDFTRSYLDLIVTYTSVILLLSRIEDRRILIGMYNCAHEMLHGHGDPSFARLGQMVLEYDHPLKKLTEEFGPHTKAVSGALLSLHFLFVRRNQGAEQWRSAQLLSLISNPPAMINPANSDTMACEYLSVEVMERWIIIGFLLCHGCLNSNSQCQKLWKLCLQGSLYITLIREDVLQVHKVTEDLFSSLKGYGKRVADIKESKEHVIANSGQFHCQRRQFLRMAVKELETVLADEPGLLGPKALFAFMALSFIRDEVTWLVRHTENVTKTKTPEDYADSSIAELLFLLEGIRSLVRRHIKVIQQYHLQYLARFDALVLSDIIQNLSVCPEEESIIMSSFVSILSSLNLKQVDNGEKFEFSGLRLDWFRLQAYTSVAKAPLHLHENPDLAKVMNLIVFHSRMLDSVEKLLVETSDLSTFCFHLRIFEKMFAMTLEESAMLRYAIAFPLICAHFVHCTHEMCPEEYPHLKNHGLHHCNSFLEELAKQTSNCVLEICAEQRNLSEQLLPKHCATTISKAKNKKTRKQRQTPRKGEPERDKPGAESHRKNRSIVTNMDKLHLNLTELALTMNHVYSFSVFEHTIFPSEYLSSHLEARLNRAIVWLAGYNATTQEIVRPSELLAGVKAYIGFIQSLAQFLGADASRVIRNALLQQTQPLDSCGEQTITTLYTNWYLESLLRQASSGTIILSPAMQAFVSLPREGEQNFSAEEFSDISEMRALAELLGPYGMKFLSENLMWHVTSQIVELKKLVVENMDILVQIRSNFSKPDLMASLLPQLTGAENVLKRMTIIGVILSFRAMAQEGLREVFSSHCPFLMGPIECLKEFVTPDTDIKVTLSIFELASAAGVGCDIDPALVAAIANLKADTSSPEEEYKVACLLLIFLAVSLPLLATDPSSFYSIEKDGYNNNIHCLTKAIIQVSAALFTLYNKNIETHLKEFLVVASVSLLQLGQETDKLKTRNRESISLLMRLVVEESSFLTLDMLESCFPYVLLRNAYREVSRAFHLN
UniProt Q8N4C6: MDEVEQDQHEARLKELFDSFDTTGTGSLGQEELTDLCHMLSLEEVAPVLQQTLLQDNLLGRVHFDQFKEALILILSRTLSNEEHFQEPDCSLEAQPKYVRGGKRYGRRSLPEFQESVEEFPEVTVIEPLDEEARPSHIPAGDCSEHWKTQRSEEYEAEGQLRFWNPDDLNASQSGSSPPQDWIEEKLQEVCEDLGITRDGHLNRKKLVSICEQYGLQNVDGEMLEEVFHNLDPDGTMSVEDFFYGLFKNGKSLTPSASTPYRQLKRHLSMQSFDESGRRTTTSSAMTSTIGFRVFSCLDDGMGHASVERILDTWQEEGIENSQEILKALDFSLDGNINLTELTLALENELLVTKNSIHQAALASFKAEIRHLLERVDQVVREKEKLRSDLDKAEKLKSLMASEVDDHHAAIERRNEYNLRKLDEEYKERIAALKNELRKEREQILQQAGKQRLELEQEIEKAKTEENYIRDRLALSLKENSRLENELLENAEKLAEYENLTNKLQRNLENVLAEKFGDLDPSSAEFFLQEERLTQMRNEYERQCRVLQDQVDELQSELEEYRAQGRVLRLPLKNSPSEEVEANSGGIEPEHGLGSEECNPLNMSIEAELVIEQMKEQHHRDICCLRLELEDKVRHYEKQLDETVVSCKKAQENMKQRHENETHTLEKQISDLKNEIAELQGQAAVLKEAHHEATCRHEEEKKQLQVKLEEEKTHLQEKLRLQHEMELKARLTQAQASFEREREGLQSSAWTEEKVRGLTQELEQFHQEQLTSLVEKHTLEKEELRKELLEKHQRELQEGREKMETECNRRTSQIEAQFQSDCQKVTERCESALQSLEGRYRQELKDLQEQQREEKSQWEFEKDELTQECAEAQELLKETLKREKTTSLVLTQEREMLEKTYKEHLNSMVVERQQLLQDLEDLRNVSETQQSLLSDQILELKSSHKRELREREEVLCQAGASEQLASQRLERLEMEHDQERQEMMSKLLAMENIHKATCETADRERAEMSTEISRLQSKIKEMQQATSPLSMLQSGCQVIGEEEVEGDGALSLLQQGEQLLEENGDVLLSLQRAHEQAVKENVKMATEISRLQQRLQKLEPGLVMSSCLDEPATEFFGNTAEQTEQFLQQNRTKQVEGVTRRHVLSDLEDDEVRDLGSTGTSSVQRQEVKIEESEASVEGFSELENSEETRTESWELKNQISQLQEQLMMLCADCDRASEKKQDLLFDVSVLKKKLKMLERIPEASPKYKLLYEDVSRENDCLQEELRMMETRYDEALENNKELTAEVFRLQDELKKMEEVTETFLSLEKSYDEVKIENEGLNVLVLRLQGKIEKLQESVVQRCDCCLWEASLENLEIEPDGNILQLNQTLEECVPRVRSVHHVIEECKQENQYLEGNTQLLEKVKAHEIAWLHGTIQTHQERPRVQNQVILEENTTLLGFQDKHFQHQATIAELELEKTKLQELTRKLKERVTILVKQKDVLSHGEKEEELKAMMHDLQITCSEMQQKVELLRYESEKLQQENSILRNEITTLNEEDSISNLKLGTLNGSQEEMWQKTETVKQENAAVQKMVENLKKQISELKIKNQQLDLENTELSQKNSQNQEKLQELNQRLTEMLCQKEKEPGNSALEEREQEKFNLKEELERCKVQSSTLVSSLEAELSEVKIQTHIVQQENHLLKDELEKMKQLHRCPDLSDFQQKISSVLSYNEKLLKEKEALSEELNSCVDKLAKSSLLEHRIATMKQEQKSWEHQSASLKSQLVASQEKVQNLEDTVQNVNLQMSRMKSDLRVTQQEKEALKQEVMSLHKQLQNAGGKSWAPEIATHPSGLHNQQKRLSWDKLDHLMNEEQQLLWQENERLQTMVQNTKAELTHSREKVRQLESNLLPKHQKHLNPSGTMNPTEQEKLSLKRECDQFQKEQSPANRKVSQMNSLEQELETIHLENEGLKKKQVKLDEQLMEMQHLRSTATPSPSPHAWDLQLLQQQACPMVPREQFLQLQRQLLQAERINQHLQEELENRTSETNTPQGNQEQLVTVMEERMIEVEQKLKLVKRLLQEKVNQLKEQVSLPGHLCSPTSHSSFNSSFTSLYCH
UniProt Q92692, whole entry, looked up: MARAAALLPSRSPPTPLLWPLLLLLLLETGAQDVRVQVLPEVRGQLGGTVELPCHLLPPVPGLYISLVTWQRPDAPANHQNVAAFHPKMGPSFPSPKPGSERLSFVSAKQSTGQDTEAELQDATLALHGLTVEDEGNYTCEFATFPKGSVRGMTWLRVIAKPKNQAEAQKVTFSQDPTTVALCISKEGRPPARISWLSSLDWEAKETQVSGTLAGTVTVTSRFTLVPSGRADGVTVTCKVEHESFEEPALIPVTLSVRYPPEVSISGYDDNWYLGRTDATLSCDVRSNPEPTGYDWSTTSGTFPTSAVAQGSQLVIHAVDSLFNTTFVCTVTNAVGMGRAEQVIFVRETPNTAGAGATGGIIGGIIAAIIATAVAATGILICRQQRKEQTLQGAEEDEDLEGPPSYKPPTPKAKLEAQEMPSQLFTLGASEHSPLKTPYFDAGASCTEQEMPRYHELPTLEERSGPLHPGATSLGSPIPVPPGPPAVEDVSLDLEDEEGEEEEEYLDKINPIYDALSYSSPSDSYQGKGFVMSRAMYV
UniProt Q96IV0: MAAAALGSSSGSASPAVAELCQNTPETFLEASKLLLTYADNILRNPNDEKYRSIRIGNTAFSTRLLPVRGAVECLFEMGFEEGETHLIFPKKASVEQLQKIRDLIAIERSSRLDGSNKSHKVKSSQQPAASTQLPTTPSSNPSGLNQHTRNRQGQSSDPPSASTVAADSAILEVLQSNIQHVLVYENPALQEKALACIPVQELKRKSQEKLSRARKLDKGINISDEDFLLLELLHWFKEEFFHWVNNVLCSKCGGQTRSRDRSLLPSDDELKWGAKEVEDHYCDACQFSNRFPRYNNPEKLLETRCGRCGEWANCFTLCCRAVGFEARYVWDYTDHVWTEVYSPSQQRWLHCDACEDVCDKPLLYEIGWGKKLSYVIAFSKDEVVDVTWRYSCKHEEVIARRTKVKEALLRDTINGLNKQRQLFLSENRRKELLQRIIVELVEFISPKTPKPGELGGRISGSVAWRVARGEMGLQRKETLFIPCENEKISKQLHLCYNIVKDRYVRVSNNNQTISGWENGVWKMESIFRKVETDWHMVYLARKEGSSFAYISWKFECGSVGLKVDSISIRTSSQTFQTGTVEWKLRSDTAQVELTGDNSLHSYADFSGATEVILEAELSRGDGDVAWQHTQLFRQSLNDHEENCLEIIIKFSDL

Compound: CC1Cc2ccccc2N1C(=O)C1CCCN(C1)C(=O)CCl (mixture of isomers) [TRIM25 ligand 11 (diastereomer mixture)]
Test: probe-labelled cysteine peptide fold change vs DMSO (competition) (log2 fold change); higher = less target engagement (more negative = stronger competition)
Conditions: THP-1, incubation time: 4 h
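Note: competitive chemoproteomic profiling in live THP-1 cells with an iodoacetamide desthiobiotin (IA-DTB) probe, comparing probe-labelled peptide intensities in compound-treated cells against DMSO-treated controls.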

With “NID1_P14543_685_EGSPDALQNPCYIGTHGCDTNAACRPGPR (UniProt P14543)” the “probe-labelled cysteine peptide fold change” value (10 µM) was -0.13 and the “probe-labelled cysteine peptide fold change” value (50 µM) was 0.291.
In the case of “NDUFS6_O75380_87_VIACDGGGGALGHPK (UniProt O75380)”, the “probe-labelled cysteine peptide fold change” value (10 µM) is reported as -0.0355 and the “probe-labelled cysteine peptide fold change” value (50 µM) is reported as -0.0716.
For “NDUFA8_P51970_110_FDECVLDK (UniProt P51970)”, the “probe-labelled cysteine peptide fold change” value (10 µM) was -0.116 and the “probe-labelled cysteine peptide fold change” value (50 µM) was 0.13.
For “NELFA_Q9H3P2_471_ENPCQEQGDVIQIK (UniProt Q9H3P2)”, the “probe-labelled cysteine peptide fold change” value (10 µM) was 0.138 and the “probe-labelled cysteine peptide fold change” value (50 µM) was -0.15.
For “NIT1_Q86X76_251+259_AIETQCYVVAAAQCGR (UniProt Q86X76)”, the “probe-labelled cysteine peptide fold change” value (10 µM) was 0.553 and the “probe-labelled cysteine peptide fold change” value (50 µM) was 0.575.
With “NDUFV1_P49821_187_NACGSGYDFDVFVVR (UniProt P49821)” the “probe-labelled cysteine peptide fold change” value (10 µM) was 0.0197 and the “probe-labelled cysteine peptide fold change” value (50 µM) was 0.136.
For “NCOA7_Q8NI08_762_STCSYYEDEDEEVLPVLRPHSALLENMHIEQLAR (UniProt Q8NI08)”, the “probe-labelled cysteine peptide fold change” value (10 µM) was 0.0534 and the “probe-labelled cysteine peptide fold change” value (50 µM) was 0.178.
With “NCKAP1L_P55160_598_NHGLHHCNSFLEELAK (UniProt P55160)” the “probe-labelled cysteine peptide fold change” value (10 µM) was -0.0547 and the “probe-labelled cysteine peptide fold change” value (50 µM) was -0.0916.
“NCKAP1L_P55160_1032_DGYNNNIHCLTK (UniProt P55160)” was tested, and the “probe-labelled cysteine peptide fold change” value (10 µM) was 0.176 and the “probe-labelled cysteine peptide fold change” value (50 µM) was 0.375.
In the case of “NIN_Q8N4C6_695_EAHHEATCR (UniProt Q8N4C6)”, the “probe-labelled cysteine peptide fold change” value (10 µM) is reported as -0.0249 and the “probe-labelled cysteine peptide fold change” value (50 µM) is reported as 0.0749.
In the case of “NFXL1_Q6ZNB6_705_AGPECLHCEEGCSK (UniProt Q6ZNB6)”, the “probe-labelled cysteine peptide fold change” value (10 µM) is reported as -0.187 and the “probe-labelled cysteine peptide fold change” value (50 µM) is reported as -0.0758.
In the case of “NFS1_Q9Y697_353_HHYPGCINLSFAYVEGESLLMALK (UniProt Q9Y697)”, the “probe-labelled cysteine peptide fold change” value (10 µM) is reported as 0.433 and the “probe-labelled cysteine peptide fold change” value (50 µM) is reported as 0.0391.
For “NECTIN2_Q92692_283_TDATLSCDVR (UniProt Q92692)”, the “probe-labelled cysteine peptide fold change” value (10 µM) was -0.0251 and the “probe-labelled cysteine peptide fold change” value (50 µM) was 0.281.
“NDUFA9_Q16795_86_CDKYDIMHLRPMGDLGQLLFLEWDAR (UniProt Q16795)” was tested, and the “probe-labelled cysteine peptide fold change” value (10 µM) was -0.201 and the “probe-labelled cysteine peptide fold change” value (50 µM) was -0.102.
For “NCKAP1L_P55160_338_EHVIANSGQFHCQR (UniProt P55160)”, the “probe-labelled cysteine peptide fold change” value (10 µM) was 0.0855 and the “probe-labelled cysteine peptide fold change” value (50 µM) was -0.139.
For “NFX1_Q12986_423_CPACQNVSAHVPNTYTCFCGK (UniProt Q12986)”, the “probe-labelled cysteine peptide fold change” value (10 µM) was 0.243 and the “probe-labelled cysteine peptide fold change” value (50 µM) was 0.36.
With “NID1_P14543_679_EGSPDALQNPCYIGTHGCDTNAACRPGPR (UniProt P14543)” the “probe-labelled cysteine peptide fold change” value (10 µM) was 0.112 and the “probe-labelled cysteine peptide fold change” value (50 µM) was -0.182.
With “NGLY1_Q96IV0_484_KETLFIPCENEK (UniProt Q96IV0)” the “probe-labelled cysteine peptide fold change” value (10 µM) was 0.0236 and the “probe-labelled cysteine peptide fold change” value (50 µM) was 0.104.
With “NIPBL_Q6KC79_2151_SLFTVGALCR (UniProt Q6KC79)” the “probe-labelled cysteine peptide fold change” value (10 µM) was 0.0145 and the “probe-labelled cysteine peptide fold change” value (50 µM) was 0.336.
With “NIN_Q8N4C6_1261_ENDCLQEELR (UniProt Q8N4C6)” the “probe-labelled cysteine peptide fold change” value (10 µM) was 0.116 and the “probe-labelled cysteine peptide fold change” value (50 µM) was 0.0579.
With “NGLY1_Q96IV0_283_EVEDHYCDACQFSNRFPR (UniProt Q96IV0)” the “probe-labelled cysteine peptide fold change” value (10 µM) was -0.198 and the “probe-labelled cysteine peptide fold change” value (50 µM) was 0.05.
“NCKAP1L_P55160_612_QTSNCVLEICAEQR (UniProt P55160)” was tested, and the “probe-labelled cysteine peptide fold change” value (10 µM) was -0.0471 and the “probe-labelled cysteine peptide fold change” value (50 µM) was -0.248.
For “NIPBL_Q6KC79_1841_FVLCRPQLAEQYYDMLIER (UniProt Q6KC79)”, the “probe-labelled cysteine peptide fold change” value (10 µM) was 0.0142 and the “probe-labelled cysteine peptide fold change” value (50 µM) was 0.22.
“NELFE_P18615_297_NCAFVTYEK (UniProt P18615)” was tested, and the “probe-labelled cysteine peptide fold change” value (10 µM) was -0.024 and the “probe-labelled cysteine peptide fold change” value (50 µM) was -0.0271.
With “NFATC1_O95644_383_GGFCDQYLAVPQHPYQWAK (UniProt O95644)” the “probe-labelled cysteine peptide fold change” value (10 µM) was -0.188 and the “probe-labelled cysteine peptide fold change” value (50 µM) was -0.156.
With “NEDD1_Q8NHV4_607_FIQNMIQETLDDFREACHR (UniProt Q8NHV4)” the “probe-labelled cysteine peptide fold change” value (10 µM) was 0.159 and the “probe-labelled cysteine peptide fold change” value (50 µM) was 0.114.
“NCOA4_Q13772_244_ACNFFNNVGGNLK (UniProt Q13772)” was tested, and the “probe-labelled cysteine peptide fold change” value (10 µM) was -0.138 and the “probe-labelled cysteine peptide fold change” value (50 µM) was 0.00789.
“NDUFV1_P49821_206_GAGAYICGEETALIESIEGK (UniProt P49821)” was tested, and the “probe-labelled cysteine peptide fold change” value (10 µM) was -0.00957 and the “probe-labelled cysteine peptide fold change” value (50 µM) was 0.00598.
For “NFIC_P08651_163_AAQCGHPVLCVQPHHIGVAVK (UniProt P08651)”, the “probe-labelled cysteine peptide fold change” value (10 µM) was 0.0061 and the “probe-labelled cysteine peptide fold change” value (50 µM) was 0.0366.
For “NDUFA8_P51970_46_EFMLCR (UniProt P51970)”, the “probe-labelled cysteine peptide fold change” value (10 µM) was -0.0141 and the “probe-labelled cysteine peptide fold change” value (50 µM) was 0.185.
“NIPBL_Q6KC79_2374_MSYQVQQAINTCLKDPVR (UniProt Q6KC79)” was tested, and the “probe-labelled cysteine peptide fold change” value (10 µM) was -0.203 and the “probe-labelled cysteine peptide fold change” value (50 µM) was -0.443.
“NFATC3_Q12968_358_LELCSDDQGSLSPAR (UniProt Q12968)” was tested, and the “probe-labelled cysteine peptide fold change” value (10 µM) was 0.32 and the “probe-labelled cysteine peptide fold change” value (50 µM) was -0.333.
“NELFB_Q8WX92_115_MPSLQPVVMCVMK (UniProt Q8WX92)” was tested, and the “probe-labelled cysteine peptide fold change” value (10 µM) was -0.277 and the “probe-labelled cysteine peptide fold change” value (50 µM) was -0.284.
With “NIT2_Q9NQR4_44_IVSLPECFNSPYGAK (UniProt Q9NQR4)” the “probe-labelled cysteine peptide fold change” value (10 µM) was -0.0155 and the “probe-labelled cysteine peptide fold change” value (50 µM) was 0.0434.
